# Source: PubChem BioAssay AID1347076 (National Center for Advancing Translational Sciences (NCATS), 2019)
# Hit rate of the full screen: of about 400,000 compounds, about 13,000 (3.2%) were called active. Inconclusive results, whose numbers are uncertain, are shown with a selection of clear calls. Calls come from the whole dose curve; as a rule, active = well fitted cell-killing curve with a large enough effect; inconclusive = small, poorly fitted or top-dose-only effect, or effect the other way; inactive = flat fitted curve, though single readings scatter. A potency beside an inconclusive call is a rough fit, not a confirmed value.
# Test: qHTS assay for MDR1-selective chemotherapeutics: Primary screen using the drug-selected MDR subline cells KB-V1; note: nearly all actives have a fitted effect of over 60% in size
# Details: KB-V1 MDR cells viability, CellTiter-Glo, 72 h; activity change, negative = cytotoxicity: at 46.1 µM (top of the series)
# Method in brief: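 Readout: CellTiter-Glo luminescence, 10 min after addition. Cells: KB-V1 MDR subline, 72 h at 37 degrees C with compound. Analysis: corrected, normalized data fitted to concentration-effect curves.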
# % is set by controls: 0 for no effect and ±100 for the full control effect; potency is the fitted concentration of half-maximal effect.
SMILES,Potency,"activity change, negative = cytotoxicity"
O=C(/C(=C/c1ccccc1)n1cncn1)c1ccc(Cl)cc1Cl,"inconclusive: 23.1 µM [cytotoxic, single point]",
O=C(NCCc1ccccc1)c1cc(-c2ccco2)on1,,inactive: -20.8%
CN(C)S(=O)(=O)c1cccc(NC(=O)CSc2nc3c(cc2C#N)C(=O)CC(C)(C)C3)c1,active: 16.4 µM,
O=C(Cc1ccc(NC(=O)C2CCCN(C(=O)C3CCC3)C2)cc1)Nc1cccc(C(=O)N2CCCCC2)c1 (stereo unspecified),"inconclusive: 3.66 µM [rising, full curve, poor fit]",
CCC[N+](CC#Cc1ccccc1)(CCC)CC(=O)OC,"inconclusive: 0.461 µM [rising, partial curve, poor fit]",
O=C(NCc1ccco1)C1C(=O)Nc2ccccc2C(=O)N1C1CCCCC1 (stereo unspecified),,inactive: -10.3%
O=c1[nH]c2cc(S(=O)(=O)CCO)ccc2o1,,inactive: 6.14%
CCCC(=O)NC(=S)Nc1cccc(Cl)c1N1CCCCC1,active: 18.4 µM,
Cc1c(NC(=O)c2ccccc2NS(=O)(=O)c2ccc(Br)cc2)c(=O)n(-c2ccccc2)n1C,active: 23.1 µM,
COc1ccccc1C/C(N)=N/OC(=O)COc1cccc2ccccc12,"inconclusive: 20.6 µM [cytotoxic, single point]",
Clc1ccc(CNc2nc(CN3CCOCC3)nc3scc(-c4ccccc4)c23)cc1,active: 20.6 µM,
CCOc1ccccc1NC(=O)CN1CCc2ccccc2C1,"inconclusive: 29.1 µM [cytotoxic, single point]",
Cc1ccc(S(=O)(=O)NCc2ccccc2)cc1C(=O)N1CC(C)CC(C)C1 (stereo unspecified),active: 13 µM,
Cc1nc2c(C(F)(F)F)cccc2c2c1CCS2,,inactive: 0.938%
CC(=O)N1CCC2(CC1)CC(=O)c1cc(Cl)ccc1O2,,inactive: 2.86%
Cc1nc(-c2ccc(F)cc2)c(CC(=O)N(C)CC(=O)Nc2ccccc2Cl)s1,active: 3.66 µM,
O=C(NNC(=S)Nc1cccc(C(F)(F)F)c1)c1ccc(Cl)cc1Cl,active: 18.4 µM,
COC(=O)c1ccccc1C(=O)N1CCOCCOCCOCC1,"inconclusive: 18.4 µM [rising, single point]",
CCCCN(CCCC)c1ccc(C=Nc2ccc(/C=C/c3ccnc4ccccc34)cc2)cc1C,active: 23.1 µM,
CN(CCCC(=O)O)S(=O)(=O)c1ccc2c(c1)C(=O)c1cc(S(=O)(=O)N(C)CCCC(=O)O)ccc1-2,"inconclusive: 8.2 µM [rising, partial curve]",
O=S(=O)(NCC(Nc1ccc(Cl)cc1)c1ccccc1)c1ccc(Cl)cc1 (stereo unspecified),"inconclusive: 20.6 µM [cytotoxic, single point]",
COc1cccc(/C=C2\SC(=S)N(CCCC(=O)N3CCCC3)C2=O)c1,"inconclusive: 18.4 µM [cytotoxic, single point]",
COc1ccc([C@H]2C(C(=O)O)=C[C@@H](C(C)(C)C)N2S(=O)(=O)c2ccc(C)cc2)cc1OC,"inconclusive: 20.6 µM [rising, single point]",
CC(=O)Nc1cccc(-c2cc(C)c3cc4c(cc3n2)OCO4)c1,,inactive: -15.3%

SMILES,Potency,"activity change, negative = cytotoxicity"
Nc1nc2ccccc2n1S(=O)(=O)c1ccc(Cl)cc1,,inactive: -20.7%
O=C(O)C1C2C=CC(C2)C1C(=O)NCc1cccnc1 (stereo unspecified),"inconclusive: 29.1 µM [rising, single point]",
CCc1ccc(NC(=O)CCNS(=O)(=O)c2cccc3nsnc23)cc1,"inconclusive: 16.4 µM [cytotoxic, partial curve]",
O=C1c2ccccc2C(c2nnnn2-c2ccc3c(c2)OCCO3)N1CCOc1ccccc1 (stereo unspecified),"inconclusive: 10.3 µM [cytotoxic, partial curve]",
Cc1ccc(/C=N/c2sc(Cc3ccccc3)c(C)c2C(N)=O)o1,"inconclusive: 29.1 µM [cytotoxic, single point]",
O=C(CCCCn1c(=O)c2ccccc2n(Cc2cccc(F)c2)c1=O)NCc1ccc2c(c1)OCO2,"inconclusive: 0.58 µM [cytotoxic, partial curve, poor fit]",
CCN1CCN(Cc2ccc(NC(=O)c3cc(NC(=O)c4ccno4)cc(OC)c3)cc2C(F)(F)F)CC1,inactive,
Cc1ccc(-c2nc3c4ccccc4n(CC(=O)NCc4ccc(F)cc4)c(=O)n3n2)cc1,"inconclusive: 23.1 µM [rising, single point]",
O=C(O)c1ccccc1C(=O)N1CCN(c2ncccn2)CC1,"inconclusive: 20.6 µM [rising, single point]",
Cc1cccc(Nc2nc(N)nc(N)c2N=O)c1,"inconclusive: 29.1 µM [cytotoxic, single point]",
O=C(NNc1nc(-c2ccc(Br)cc2)cs1)c1ccco1,,inactive: 5.77%
Cc1ccc(C)c(S(=O)(=O)Nc2cc3c4c(c2)CC(=O)N4CCC3)c1,active: 11.6 µM,
CC(C)CN1CCC1(C)C(=O)Nc1ccc(OC(F)F)cc1 (stereo unspecified),,inactive: -2.57%
CCCCCNC(=O)c1ccccc1SC,"inconclusive: 29.1 µM [cytotoxic, partial curve, poor fit]",
Cc1cc(C)c(C(=O)COC(=O)Cn2c(C)csc2=O)cc1C,"inconclusive: 18.4 µM [rising, single point]",
CN(c1ccccc1)c1cc(Br)nc(Br)c1,active: 20.6 µM,
Cn1c(=O)c2c(nc(CN3CCN(Cc4ccccc4)CC3)n2CCN2CCOCC2)n(C)c1=O,,inactive: -2.32%
C=CCN1C(=O)/C(=C\c2ccc(Oc3nc(N4CCOCC4)nc(N4CCOCC4)n3)c(OC)c2)SC1=S,,inactive: -4.59%
COc1ccc(OCC(=O)Nc2ccc3c(c2)nc(CCN2CCN(c4ccccn4)CC2)n3C)cc1,,inactive: -26%
CCOC(=O)C1=C(CN2CCN(c3ccc(F)cc3)CC2)NC(=O)NC1c1cccs1 (stereo unspecified),"inconclusive: 29.1 µM [cytotoxic, single point]",
O=C(C=C(O)c1ccc(Cl)cc1)C(=O)NNC(=O)C(O)(c1ccccc1)c1ccccc1,,inactive: 18.6%
O=C(CCNS(=O)(=O)c1ccccc1C(F)(F)F)NCc1ccc2c(c1)OCO2,"inconclusive: 29.1 µM [cytotoxic, single point]",
Cc1ccc(N(CC(=O)NC(C)C)C(=O)CCC(=O)Nc2ccccn2)c(C)c1,"inconclusive: 18.4 µM [cytotoxic, single point]",
COC(=O)Cc1ccc2sc(-c3ccccc3)nc2c1,"inconclusive: 13 µM [cytotoxic, partial curve]",

# Some values from the list:
# Value for `CCCC(=O)NC(=S)Nc1cccc(Cl)c1N1CCCCC1` under Potency: active: 18.4 µM
# Value for `Cn1c(=O)c2c(nc(CN3CCN(Cc4ccccc4)CC3)n2CCN2CCOCC2)n(C)c1=O` under activity change, negative = cytotoxicity: inactive: -2.32%
# Value for `CN(C)S(=O)(=O)c1cccc(NC(=O)CSc2nc3c(cc2C#N)C(=O)CC(C)(C)C3)c1` under Potency: active: 16.4 µM

# An excerpt from above in order of number of heavy atoms, ascending:
SMILES,Potency,"activity change, negative = cytotoxicity"
CCCCCNC(=O)c1ccccc1SC,"inconclusive: 29.1 µM [cytotoxic, partial curve, poor fit]",
O=C(O)C1C2C=CC(C2)C1C(=O)NCc1cccnc1 (stereo unspecified),"inconclusive: 29.1 µM [rising, single point]",
COc1ccc(OCC(=O)Nc2ccc3c(c2)nc(CCN2CCN(c4ccccn4)CC2)n3C)cc1,,inactive: -26%

# Continued.

SMILES,Potency,"activity change, negative = cytotoxicity"
CCOc1cc(C(=O)Nc2ccc(NC(=O)c3cc4ccccc4o3)c(OC)c2)cc(OCC)c1OCC,,inactive: 23.2%
N#Cc1ccc(NC(=O)COC(=O)CCc2nc3ccccc3c(=O)[nH]2)cc1,"inconclusive: 29.1 µM [cytotoxic, single point]",
O=C(N/C(=C/c1cccc([N+](=O)[O-])c1)C(=O)N1CCOCC1)c1ccc(Br)cc1,"inconclusive: 9.2 µM [cytotoxic, partial curve]",
COc1ccccc1CN1C[C@@H]2C[C@@H](c3ccc(C)cc3)N3CCC[C@@]23C1=O,"inconclusive: 9.2 µM [cytotoxic, partial curve, poor fit]",
Cc1cc(C)cc(NC(=S)NCc2cccnc2)c1,"inconclusive: 18.4 µM [cytotoxic, single point]",
COC(=O)C1C/C(=N\NS(=O)(=O)c2ccc(C)cc2)c2ccsc2C1 (stereo unspecified),"inconclusive: 16.4 µM [cytotoxic, single point]",
Cc1cccn2c(=O)c(C=O)c(N3CC(C)OC(C)C3)nc12 (stereo unspecified),,inactive: -11.5%
Cc1ccc(NS(=O)(=O)c2cc(-c3cc(C)no3)ccc2C)c(Cl)c1,"inconclusive: 29.1 µM [cytotoxic, single point]",
CC(=O)Nc1ccc(NC(=O)C2CCN(S(=O)(=O)c3ccc4c(c3)CCCC(=O)N4)CC2)cc1,,inactive: 6.02%
O=[N+]([O-])c1cc(Br)ccc1NS(=O)(=O)c1ccccc1,,inactive: -3.21%
O=C(NCc1ccccc1)C(c1ccc(F)cc1)N(Cc1cccs1)C(=O)c1cnccn1 (stereo unspecified),,inactive: -16.8%
CCc1ccccc1NC(=O)CSc1nnc(-c2ccc(OC)cc2)s1,,inactive: -2.78%
O=C(C[C@@H]1C/C=C\C[C@H](NC(=O)OCC2c3ccccc3-c3ccccc32)C(=O)OC[C@H]2CCCN2C1=O)N[C@@H](CO)Cc1ccccc1,"inconclusive: 29.1 µM [rising, single point]",
O=C(NCc1ccccc1)c1cc(C2CCCCN2S(=O)(=O)c2ccccc2)on1 (stereo unspecified),,inactive: -0.792%
Cn1nc(CC(=O)NCc2ccc(F)cc2)c2ccccc2c1=O,"inconclusive: 23.1 µM [cytotoxic, single point]",
N#Cc1ccccc1S(=O)(=O)N1CCN(Cc2cc3c(cc2Br)OCCO3)CC1,"inconclusive: 14.6 µM [cytotoxic, partial curve]",
S=C(NCCc1ccccc1)N1CCN(C(c2ccccc2)c2ccccc2)CC1,"inconclusive: 18.4 µM [cytotoxic, single point]",
CN1CCC(C(=O)C(=O)O)C1=O (stereo unspecified),,inactive: -6.16%
O=C(NCc1ccc(F)cc1)c1cc2c(cc1Cl)N1CCCCCC1=NS2(=O)=O,,inconclusive: 37.5%
C[C@@H]1CN([C@H](C)CO)C(=O)CCCn2cc(nn2)CO[C@H]1CN(C)C(=O)Nc1cccc2ccccc12,"inconclusive: 18.4 µM [rising, single point]",
Cc1ccc(C)c2c1cc(C)c1nnc(SCC(=O)Nc3cccc(C(=O)O)c3)n12,"inconclusive: 14.6 µM [rising, partial curve, poor fit]",
Cc1ccc2nc(SCC(=O)NCc3ccco3)[nH]c2c1,"inconclusive: 29.1 µM [cytotoxic, single point]",
O=C(CSc1nnc2ccccn12)NNC(=O)c1ccc(Cl)cc1,"inconclusive: 3.66 µM [rising, full curve]",
